PubChem BioAssay AID743121, NCATS, 2013
The deposit covers about 26,000 reagents; this is a part drawn at random. 167 of all reagents (0.63%) count as active. 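Calls are per gene from RSA p-values that are not deposited; an individual active-marked siRNA can sensitise only weakly.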 The numbers tell different reagents against one gene apart.

- Test: 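Genes whose silencing strengthens cell killing by camptothecin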 (primary screen)
- System: MDA-MB-231 cells, a human breast cancer line
- Reagents: single siRNA against human genes, 20 nM siRNA (0.8 pmol per well)
- Timing: 120 h (drug added 48 h after transfection, read 72 h later)
- Conditions: camptothecin 20 nM (about EC30) for 72 h; vehicle 0.1% DMSO in parallel plates
- Measurement: 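CellTiter-Glo ATP signal, scaled to control siRNA as percent viability; sensitisation given as log2 of untreated divided by camptothecin-treated viability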
- Reading the numbers: log2 vehicle/camptothecin viability: higher = stronger sensitisation to camptothecin; viability with camptothecin and viability without drug: higher = more viable cells
- Rule for the call: 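Each gene scored by redundant siRNA activity (RSA) over its individual siRNA ratios; a gene is called active at p < 0.001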

gene symbol	siRNA no.	log2 vehicle/camptothecin viability	viability with camptothecin (% of control)	viability without drug (% of control)	Outcome
LPAR4 (lysophosphatidic acid receptor 4)	1	-0.47	98	70.7	inactive
LPAR4 (lysophosphatidic acid receptor 4)	2	-0.514	101	70.7	inactive
LPAR4 (lysophosphatidic acid receptor 4)	3	-0.192	68.3	59.8	inactive
DVL2 (dishevelled segment polarity protein 2)	1	-0.722	99.2	60.1	inactive
DVL2 (dishevelled segment polarity protein 2)	2	-0.274	61	50.4	inactive
DVL2 (dishevelled segment polarity protein 2)	3	-0.254	94.7	79.4	inactive
DVL2 (dishevelled segment polarity protein 2)	4	-0.365	82	63.6	inactive
CACNG4 (calcium voltage-gated channel auxiliary subunit gamma 4)	1	-0.428	102	75.6	inactive
CACNG4 (calcium voltage-gated channel auxiliary subunit gamma 4)	2	-0.467	54.5	39.4	inactive
CACNG4 (calcium voltage-gated channel auxiliary subunit gamma 4)	3	-0.281	62.9	51.7	inactive
CACNG4 (calcium voltage-gated channel auxiliary subunit gamma 4)	4	-0.0456	95.1	92.1	inactive
IGSF10 (immunoglobulin superfamily member 10)	1	-0.0972	73.7	68.9	inactive
IGSF10 (immunoglobulin superfamily member 10)	2	-0.409	92.3	69.6	inactive
IGSF10 (immunoglobulin superfamily member 10)	3	-0.348	59.3	46.6	inactive
IGSF10 (immunoglobulin superfamily member 10)	4	-0.197	63.4	55.3	inactive
PTGER4 (prostaglandin E receptor 4)	1	-0.145	108	98	inactive
PTGER4 (prostaglandin E receptor 4)	2	1.22	21	48.9	inactive
PTGER4 (prostaglandin E receptor 4)	3	-0.0806	85.3	80.6	inactive
PTGER4 (prostaglandin E receptor 4)	4	0.306	82	101	inactive
JAK3 (Janus kinase 3)	1	-0.248	84.2	71	inactive
JAK3 (Janus kinase 3)	2	-0.649	82.6	52.7	inactive
JAK3 (Janus kinase 3)	3	-0.254	104	86.8	inactive
JAK3 (Janus kinase 3)	4	-0.446	94.5	69.4	inactive

The list goes on; the last 4 above are carried over.
gene symbol	siRNA no.	log2 vehicle/camptothecin viability	viability with camptothecin (% of control)	viability without drug (% of control)	Outcome
JAK3 (Janus kinase 3)	1	-0.248	84.2	71	inactive
JAK3 (Janus kinase 3)	2	-0.649	82.6	52.7	inactive
JAK3 (Janus kinase 3)	3	-0.254	104	86.8	inactive
JAK3 (Janus kinase 3)	4	-0.446	94.5	69.4	inactive
ING2 (inhibitor of growth family member 2)	1	-0.137	100	91.1	inactive
ING2 (inhibitor of growth family member 2)	2	-0.394	105	79.8	inactive
ING2 (inhibitor of growth family member 2)	3	-0.162	41.1	36.7	inactive
ING2 (inhibitor of growth family member 2)	4	0.0502	65.9	68.3	inactive
FSHB (follicle stimulating hormone subunit beta)	1	-0.49	52.9	37.6	inactive
FSHB (follicle stimulating hormone subunit beta)	2	-0.163	106	94.7	inactive
FSHB (follicle stimulating hormone subunit beta)	3	-0.258	105	87.6	inactive
HSD11B1 (hydroxysteroid 11-beta dehydrogenase 1)	1	-0.201	120	105	inactive
HSD11B1 (hydroxysteroid 11-beta dehydrogenase 1)	2	-0.0818	87.4	82.6	inactive
HSD11B1 (hydroxysteroid 11-beta dehydrogenase 1)	3	-0.228	90.5	77.2	inactive
HSD11B1 (hydroxysteroid 11-beta dehydrogenase 1)	4	-0.0323	125	122	inactive
FOXC2 (forkhead box C2)	1	-0.0811	61.2	57.8	inactive
FOXC2 (forkhead box C2)	2	-0.198	97.8	85.2	inactive
FOXC2 (forkhead box C2)	3	-0.252	93.6	78.6	inactive
FOXC2 (forkhead box C2)	4	-0.0501	89.1	86.1	inactive
KEL (Kell metallo-endopeptidase (Kell blood group))	1	-0.0985	79.3	74.1	inactive
KEL (Kell metallo-endopeptidase (Kell blood group))	2	0.985	33.8	66.9	inactive
KEL (Kell metallo-endopeptidase (Kell blood group))	3	-0.182	110	96.7	inactive
KEL (Kell metallo-endopeptidase (Kell blood group))	4	-0.169	79.5	70.7	inactive
DMC1 (DNA meiotic recombinase 1)	1	-0.178	131	115	inactive
DMC1 (DNA meiotic recombinase 1)	2	0.0639	85.5	89.4	inactive
DMC1 (DNA meiotic recombinase 1)	3	-0.0496	76.6	74	inactive
DMC1 (DNA meiotic recombinase 1)	4	-0.0199	89.6	88.4	inactive
CDC25A (cell division cycle 25A)	1	0.0784	40.9	43.2	inactive
CDC25A (cell division cycle 25A)	2	0.496	59.9	84.4	inactive
CDC25A (cell division cycle 25A)	3	-0.216	104	89.9	inactive
CDC25A (cell division cycle 25A)	4	-0.148	44.1	39.8	inactive
ARID1A (AT-rich interaction domain 1A)	1	-0.385	21.2	16.3	inactive
ARID1A (AT-rich interaction domain 1A)	2	0.565	41.6	61.5	inactive
ARID1A (AT-rich interaction domain 1A)	3	-0.145	119	108	inactive
ARID1A (AT-rich interaction domain 1A)	4	-0.394	91.4	69.6	inactive
COMTD1 (catechol-O-methyltransferase domain containing 1)	1	-0.232	75.2	64	inactive
COMTD1 (catechol-O-methyltransferase domain containing 1)	2	-0.386	79.3	60.7	inactive
COMTD1 (catechol-O-methyltransferase domain containing 1)	3	-0.0909	47	44.2	inactive
COMTD1 (catechol-O-methyltransferase domain containing 1)	4	0.151	65.4	72.6	inactive
HMGCS2 (3-hydroxy-3-methylglutaryl-CoA synthase 2)	1	-0.103	84.4	78.6	inactive
HMGCS2 (3-hydroxy-3-methylglutaryl-CoA synthase 2)	2	0.898	60.2	112	inactive
HMGCS2 (3-hydroxy-3-methylglutaryl-CoA synthase 2)	3	-0.114	109	101	inactive
HMGCS2 (3-hydroxy-3-methylglutaryl-CoA synthase 2)	4	0.296	82.1	101	inactive
NFKB1 (nuclear factor kappa B subunit 1)	1	0.139	62.8	69.1	inactive
NFKB1 (nuclear factor kappa B subunit 1)	2	0.571	25.3	37.5	inactive
NFKB1 (nuclear factor kappa B subunit 1)	3	0.0805	96.7	102	inactive
INPP5B (inositol polyphosphate-5-phosphatase B)	1	-0.302	65.6	53.2	inactive
INPP5B (inositol polyphosphate-5-phosphatase B)	2	-0.0721	90.2	85.8	inactive
INPP5B (inositol polyphosphate-5-phosphatase B)	3	-0.013	91	90.2	inactive
INPP5B (inositol polyphosphate-5-phosphatase B)	4	0.0644	46.6	48.7	inactive
